# Source: the supplement of paper PMC10849652
# By UniProt entry, the sequences of proteins in these tests, tags left out. Where a name states a change or a piece, a line headed by the entry shows the natural chain unless it says otherwise.
# UniProt Q9BQG2: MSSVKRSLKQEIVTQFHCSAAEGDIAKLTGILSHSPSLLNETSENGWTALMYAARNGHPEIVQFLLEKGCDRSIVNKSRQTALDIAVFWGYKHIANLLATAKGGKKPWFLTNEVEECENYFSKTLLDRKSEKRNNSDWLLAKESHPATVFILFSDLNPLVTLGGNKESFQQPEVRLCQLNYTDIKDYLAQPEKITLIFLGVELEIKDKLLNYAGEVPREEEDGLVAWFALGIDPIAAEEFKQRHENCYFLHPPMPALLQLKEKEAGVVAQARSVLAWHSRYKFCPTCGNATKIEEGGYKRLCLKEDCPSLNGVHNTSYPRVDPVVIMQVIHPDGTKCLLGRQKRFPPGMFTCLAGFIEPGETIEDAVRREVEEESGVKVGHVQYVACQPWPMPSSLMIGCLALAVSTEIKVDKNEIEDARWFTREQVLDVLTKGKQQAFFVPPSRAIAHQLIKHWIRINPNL
# UniProt Q9NZJ9: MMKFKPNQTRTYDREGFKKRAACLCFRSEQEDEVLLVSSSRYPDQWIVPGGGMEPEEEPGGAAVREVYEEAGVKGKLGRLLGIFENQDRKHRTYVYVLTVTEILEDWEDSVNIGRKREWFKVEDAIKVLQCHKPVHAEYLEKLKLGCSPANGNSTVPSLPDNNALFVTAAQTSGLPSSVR
# UniProt Q96IY1: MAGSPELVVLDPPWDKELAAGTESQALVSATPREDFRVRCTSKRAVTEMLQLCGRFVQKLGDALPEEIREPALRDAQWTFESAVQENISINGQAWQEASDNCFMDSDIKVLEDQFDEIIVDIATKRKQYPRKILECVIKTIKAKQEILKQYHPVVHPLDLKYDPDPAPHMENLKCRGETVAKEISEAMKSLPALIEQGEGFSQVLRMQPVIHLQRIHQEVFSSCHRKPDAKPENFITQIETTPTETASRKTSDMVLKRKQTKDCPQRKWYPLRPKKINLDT
# UniProt Q96P11: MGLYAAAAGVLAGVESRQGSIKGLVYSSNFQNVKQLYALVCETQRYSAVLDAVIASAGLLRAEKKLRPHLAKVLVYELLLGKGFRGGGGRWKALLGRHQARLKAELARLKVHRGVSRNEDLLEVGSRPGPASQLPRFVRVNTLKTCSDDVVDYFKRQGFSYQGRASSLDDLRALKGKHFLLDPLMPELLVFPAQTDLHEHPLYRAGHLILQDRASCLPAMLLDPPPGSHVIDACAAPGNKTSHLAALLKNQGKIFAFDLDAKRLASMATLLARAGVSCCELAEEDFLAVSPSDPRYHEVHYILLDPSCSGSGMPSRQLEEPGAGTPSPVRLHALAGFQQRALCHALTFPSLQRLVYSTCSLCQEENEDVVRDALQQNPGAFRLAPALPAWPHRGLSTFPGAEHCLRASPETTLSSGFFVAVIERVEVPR
# UniProt Q96D46: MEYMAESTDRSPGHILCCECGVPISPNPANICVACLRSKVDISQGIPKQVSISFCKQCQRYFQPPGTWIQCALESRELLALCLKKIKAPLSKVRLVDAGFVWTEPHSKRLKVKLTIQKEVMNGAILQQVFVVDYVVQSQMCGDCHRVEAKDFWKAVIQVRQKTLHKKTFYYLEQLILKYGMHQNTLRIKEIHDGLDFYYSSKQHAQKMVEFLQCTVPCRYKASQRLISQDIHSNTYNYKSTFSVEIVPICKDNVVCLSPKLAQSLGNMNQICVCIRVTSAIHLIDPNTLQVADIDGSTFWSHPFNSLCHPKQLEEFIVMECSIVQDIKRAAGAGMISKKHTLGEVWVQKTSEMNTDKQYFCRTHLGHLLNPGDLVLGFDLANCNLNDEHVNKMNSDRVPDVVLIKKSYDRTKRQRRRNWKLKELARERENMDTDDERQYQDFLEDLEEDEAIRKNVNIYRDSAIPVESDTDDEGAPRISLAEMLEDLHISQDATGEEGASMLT
# UniProt Q96RS6: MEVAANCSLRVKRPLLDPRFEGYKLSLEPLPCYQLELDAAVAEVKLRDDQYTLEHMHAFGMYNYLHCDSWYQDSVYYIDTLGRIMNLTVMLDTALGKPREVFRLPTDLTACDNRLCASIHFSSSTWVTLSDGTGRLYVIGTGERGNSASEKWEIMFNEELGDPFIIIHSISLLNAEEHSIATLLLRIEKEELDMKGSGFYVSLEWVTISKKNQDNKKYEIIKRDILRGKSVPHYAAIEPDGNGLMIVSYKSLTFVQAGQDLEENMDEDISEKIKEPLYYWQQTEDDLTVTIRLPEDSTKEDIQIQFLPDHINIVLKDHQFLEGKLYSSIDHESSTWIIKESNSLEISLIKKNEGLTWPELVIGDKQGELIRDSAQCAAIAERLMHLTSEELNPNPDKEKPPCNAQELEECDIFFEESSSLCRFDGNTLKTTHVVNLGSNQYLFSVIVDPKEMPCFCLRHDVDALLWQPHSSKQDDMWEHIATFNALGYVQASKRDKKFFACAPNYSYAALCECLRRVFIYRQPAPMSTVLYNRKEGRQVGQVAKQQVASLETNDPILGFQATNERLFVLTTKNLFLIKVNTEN
# UniProt Q8NC60: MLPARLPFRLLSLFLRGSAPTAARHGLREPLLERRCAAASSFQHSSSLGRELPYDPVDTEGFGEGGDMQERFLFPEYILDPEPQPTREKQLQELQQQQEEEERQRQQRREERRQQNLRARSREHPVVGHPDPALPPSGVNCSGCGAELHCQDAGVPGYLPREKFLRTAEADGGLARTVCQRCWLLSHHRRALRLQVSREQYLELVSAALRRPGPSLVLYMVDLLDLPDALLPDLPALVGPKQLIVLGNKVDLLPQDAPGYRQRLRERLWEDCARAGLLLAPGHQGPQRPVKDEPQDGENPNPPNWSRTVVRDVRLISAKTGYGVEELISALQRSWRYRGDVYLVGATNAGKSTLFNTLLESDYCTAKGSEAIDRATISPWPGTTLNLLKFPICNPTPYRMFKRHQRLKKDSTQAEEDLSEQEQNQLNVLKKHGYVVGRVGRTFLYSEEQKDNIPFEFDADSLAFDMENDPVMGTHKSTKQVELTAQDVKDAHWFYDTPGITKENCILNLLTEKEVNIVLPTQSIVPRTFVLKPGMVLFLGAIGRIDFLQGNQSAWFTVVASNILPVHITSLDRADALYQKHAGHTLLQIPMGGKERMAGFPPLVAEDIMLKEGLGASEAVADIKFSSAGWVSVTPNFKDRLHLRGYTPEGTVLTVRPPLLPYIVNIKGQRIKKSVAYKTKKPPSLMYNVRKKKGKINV
# UniProt Q9Y314: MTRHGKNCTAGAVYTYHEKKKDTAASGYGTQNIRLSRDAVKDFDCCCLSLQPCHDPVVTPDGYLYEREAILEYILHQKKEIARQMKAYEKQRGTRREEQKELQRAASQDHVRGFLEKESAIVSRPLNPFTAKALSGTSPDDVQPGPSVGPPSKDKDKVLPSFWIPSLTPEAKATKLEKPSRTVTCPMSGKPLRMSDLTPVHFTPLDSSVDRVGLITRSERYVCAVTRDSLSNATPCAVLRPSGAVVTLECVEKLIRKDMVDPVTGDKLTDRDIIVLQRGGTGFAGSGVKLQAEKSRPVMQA
# UniProt Q14980: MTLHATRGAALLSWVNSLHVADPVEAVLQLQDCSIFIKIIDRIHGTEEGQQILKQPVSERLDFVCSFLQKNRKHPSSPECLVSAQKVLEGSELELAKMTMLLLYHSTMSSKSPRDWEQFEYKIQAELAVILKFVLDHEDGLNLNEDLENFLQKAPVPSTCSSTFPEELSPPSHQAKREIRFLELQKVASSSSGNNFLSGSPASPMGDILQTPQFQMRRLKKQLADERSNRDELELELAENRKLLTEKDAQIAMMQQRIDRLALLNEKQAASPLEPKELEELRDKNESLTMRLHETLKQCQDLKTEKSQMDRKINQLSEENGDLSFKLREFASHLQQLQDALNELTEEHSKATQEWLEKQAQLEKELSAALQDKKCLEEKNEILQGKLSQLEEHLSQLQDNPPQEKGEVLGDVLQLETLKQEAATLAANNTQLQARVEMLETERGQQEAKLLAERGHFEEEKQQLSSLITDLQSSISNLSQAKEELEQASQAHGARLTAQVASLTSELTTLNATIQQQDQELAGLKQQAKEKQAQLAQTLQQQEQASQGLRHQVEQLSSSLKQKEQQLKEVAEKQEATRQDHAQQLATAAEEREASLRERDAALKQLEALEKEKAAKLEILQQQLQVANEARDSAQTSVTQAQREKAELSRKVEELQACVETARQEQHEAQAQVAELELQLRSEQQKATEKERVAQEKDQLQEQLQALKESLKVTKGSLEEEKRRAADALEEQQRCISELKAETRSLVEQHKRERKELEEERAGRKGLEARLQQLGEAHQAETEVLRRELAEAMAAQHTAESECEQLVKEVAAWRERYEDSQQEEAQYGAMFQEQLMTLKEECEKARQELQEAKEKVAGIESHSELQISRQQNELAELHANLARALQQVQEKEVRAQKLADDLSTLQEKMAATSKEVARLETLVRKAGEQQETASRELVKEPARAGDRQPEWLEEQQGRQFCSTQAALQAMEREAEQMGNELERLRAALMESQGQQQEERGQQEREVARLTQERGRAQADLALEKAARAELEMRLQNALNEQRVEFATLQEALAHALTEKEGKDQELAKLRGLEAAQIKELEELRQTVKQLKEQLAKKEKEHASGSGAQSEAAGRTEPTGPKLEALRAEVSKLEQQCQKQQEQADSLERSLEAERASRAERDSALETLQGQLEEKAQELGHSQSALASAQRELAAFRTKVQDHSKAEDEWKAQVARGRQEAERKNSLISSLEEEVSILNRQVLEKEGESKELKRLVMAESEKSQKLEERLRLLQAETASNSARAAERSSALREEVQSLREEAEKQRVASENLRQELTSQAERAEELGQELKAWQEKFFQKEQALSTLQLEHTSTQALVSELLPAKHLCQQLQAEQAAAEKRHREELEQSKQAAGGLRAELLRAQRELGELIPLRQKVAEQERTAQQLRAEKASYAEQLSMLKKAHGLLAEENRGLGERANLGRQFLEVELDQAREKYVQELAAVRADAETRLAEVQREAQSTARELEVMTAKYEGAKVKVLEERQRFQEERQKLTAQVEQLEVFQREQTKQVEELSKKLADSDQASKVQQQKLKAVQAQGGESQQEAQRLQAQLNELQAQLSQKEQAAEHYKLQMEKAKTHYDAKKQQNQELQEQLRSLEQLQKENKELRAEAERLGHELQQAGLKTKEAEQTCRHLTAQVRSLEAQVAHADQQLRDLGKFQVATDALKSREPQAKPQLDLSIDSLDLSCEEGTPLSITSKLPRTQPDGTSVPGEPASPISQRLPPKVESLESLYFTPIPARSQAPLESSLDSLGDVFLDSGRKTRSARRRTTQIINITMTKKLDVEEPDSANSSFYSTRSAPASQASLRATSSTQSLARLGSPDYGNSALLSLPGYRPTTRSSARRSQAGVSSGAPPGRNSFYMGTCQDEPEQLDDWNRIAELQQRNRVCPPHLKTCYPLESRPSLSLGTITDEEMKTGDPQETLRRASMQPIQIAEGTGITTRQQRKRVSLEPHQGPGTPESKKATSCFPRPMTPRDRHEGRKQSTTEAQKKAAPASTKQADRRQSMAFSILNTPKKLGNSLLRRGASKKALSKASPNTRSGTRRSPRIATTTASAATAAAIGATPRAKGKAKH
# UniProt P22392, whole entry, looked up: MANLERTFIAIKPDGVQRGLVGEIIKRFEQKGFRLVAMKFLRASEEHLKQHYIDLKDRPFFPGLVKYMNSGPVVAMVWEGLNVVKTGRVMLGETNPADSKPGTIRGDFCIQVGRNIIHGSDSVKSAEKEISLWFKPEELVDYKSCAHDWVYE
# UniProt Q9NV35: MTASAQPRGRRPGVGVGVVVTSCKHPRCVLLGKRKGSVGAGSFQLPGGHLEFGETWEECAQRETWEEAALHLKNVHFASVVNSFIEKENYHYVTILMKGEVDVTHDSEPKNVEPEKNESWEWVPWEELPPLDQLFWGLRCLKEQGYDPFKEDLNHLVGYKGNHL
# UniProt Q8TCD5: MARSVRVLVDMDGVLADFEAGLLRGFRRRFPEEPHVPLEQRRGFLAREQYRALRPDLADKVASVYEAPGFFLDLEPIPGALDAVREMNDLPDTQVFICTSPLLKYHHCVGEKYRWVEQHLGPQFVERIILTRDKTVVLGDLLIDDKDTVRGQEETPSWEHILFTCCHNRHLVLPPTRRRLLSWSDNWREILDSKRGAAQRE
# UniProt Q9H857: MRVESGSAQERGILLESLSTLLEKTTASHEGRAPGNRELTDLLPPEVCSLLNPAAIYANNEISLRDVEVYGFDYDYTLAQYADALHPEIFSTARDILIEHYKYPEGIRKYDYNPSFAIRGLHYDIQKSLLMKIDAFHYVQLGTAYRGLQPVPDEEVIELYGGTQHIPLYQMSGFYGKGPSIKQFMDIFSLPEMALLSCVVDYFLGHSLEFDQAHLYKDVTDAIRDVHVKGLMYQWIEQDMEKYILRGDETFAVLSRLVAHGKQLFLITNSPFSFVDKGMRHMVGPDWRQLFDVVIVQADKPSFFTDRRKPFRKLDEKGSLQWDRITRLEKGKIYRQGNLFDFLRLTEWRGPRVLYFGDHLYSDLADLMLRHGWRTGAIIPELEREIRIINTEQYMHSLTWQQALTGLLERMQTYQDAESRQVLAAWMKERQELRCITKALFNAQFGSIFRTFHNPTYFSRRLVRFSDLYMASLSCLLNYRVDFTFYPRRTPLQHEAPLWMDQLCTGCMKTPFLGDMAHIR
# The other results are listed elsewhere or left out.
# Compound: CS(=O)(=O)CCNCc1ccc(-c2ccc3ncnc(Nc4ccc(OCc5cccc(F)c5)c(Cl)c4)c3c2)o1 [lapatinib]
# Test: log2 fold change, soluble protein after heating vs DMSO (PISA); higher = thermal stabilisation; K562 lysate, 10 uM; active = over 0.2 and 3.5 SD of the protein, either way, in both replicates (recomputed)
# Method in brief: (§1)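 K562 pellets were dounce-homogenised in PBS pH 7.4 with 1 mM MgCl2, and the crude extract at 1 mg/mL protein was treated with 10 μM compound for 30 min. Aliquots were heated for 3 min across 48°C-58°C, pooled, and brought to 0.5% NP-40 at 4°C; soluble protein was the supernatant after 21,000xg for 90 min. Soluble protein was quantified by TMTpro 16plex LC-MS/MS with channel sums equalised, and reported as log2 fold change in thermal stability against DMSO controls, with values from duplicates.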
row,Target,log2 fold change
1,NUDT5 (UniProt Q9UKK9),inactive: 0.003
2,NOL12 (UniProt Q9UGY1),inactive: -0.009
3,NUBP1 (UniProt P53384),inactive: -0.054
4,NUMBL (UniProt Q9Y6R0),inactive: 0.01
5,NUDT12 (UniProt Q9BQG2),inactive: -0.006
6,NMNAT1 (UniProt Q9HAN9),inactive: -0.035
7,NT5C2 (UniProt P49902),inactive: -0.011
8,NSRP1 (UniProt Q9H0G5),inactive: 0.015
9,NUDT4 isoform 2 (UniProt Q9NZJ9),inactive: -0.002
10,NSL1 (UniProt Q96IY1),inactive: -0.003
11,NSFL1C isoform 5 (UniProt Q9UNZ2),inactive: 0.021
12,NSUN5 isoform 2 (UniProt Q96P11),inactive: 0.017
13,NRAS (UniProt P01111),inactive: 0.008
14,NOC3L (UniProt Q8WTT2),inactive: -0.011
15,NMD3 (UniProt Q96D46),inactive: -0.018
16,NSMCE4A (UniProt Q9NXX6),inactive: -0.01

row,Target,log2 fold change
1,NUDCD1 (UniProt Q96RS6),inactive: -0.006
2,NOMO2 (UniProt Q5JPE7),inactive: -0.025
3,NOA1 (UniProt Q8NC60),inactive: -0.043
4,NOP53 (UniProt Q9NZM5),inactive: -0.011
5,NOSIP (UniProt Q9Y314),inactive: -0.03
6,NUDCD2 (UniProt Q8WVJ2),inactive: -0.012
7,NSF (UniProt P46459),inactive: -0.026
8,NUMA1 (UniProt Q14980),inactive: -0.012
9,NME2 isoform 2 (UniProt P22392),inactive: -0.003
10,NUDT15 (UniProt Q9NV35),inactive: 0.001
11,NT5C (UniProt Q8TCD5),inactive: 0.02
12,NSDHL (UniProt Q15738),inactive: 0.034
13,NSUN2 (UniProt Q08J23),inactive: -0.009
14,NT5DC1 (UniProt Q5TFE4),inactive: 0.032
15,NRBP2 (UniProt Q9NSY0),inactive: 0.023
16,NT5DC2 isoform 2 (UniProt Q9H857),inactive: -0.036

# Compound: CS(=O)(=O)N1CCN(Cc2cc3nc(-c4cccc5[nH]ncc45)nc(N4CCOCC4)c3s2)CC1 [pictilisib]
# Test: as above
# Method in brief: as §1
row,Target,log2 fold change
1,NUDT5 (UniProt Q9UKK9),inactive: -0.036
2,NOL12 (UniProt Q9UGY1),inactive: -0.044
3,NUBP1 (UniProt P53384),inactive: -0.036
4,NUMBL (UniProt Q9Y6R0),inactive: 0.111
5,NUDT12 (UniProt Q9BQG2),inactive: 0.021
6,NMNAT1 (UniProt Q9HAN9),inactive: 0.003
7,NT5C2 (UniProt P49902),inactive: 0.021
8,NSRP1 (UniProt Q9H0G5),inactive: 0
9,NUDT4 isoform 2 (UniProt Q9NZJ9),inactive: 0.006
10,NSL1 (UniProt Q96IY1),inactive: -0.032
11,NSFL1C isoform 5 (UniProt Q9UNZ2),inactive: -0.007
12,NSUN5 isoform 2 (UniProt Q96P11),inactive: 0.012
13,NRAS (UniProt P01111),inactive: -0.018
14,NOC3L (UniProt Q8WTT2),inactive: -0.003
15,NMD3 (UniProt Q96D46),inactive: 0.019
16,NSMCE4A (UniProt Q9NXX6),inactive: -0.019

row,Target,log2 fold change
1,NUDCD1 (UniProt Q96RS6),inactive: 0.002
2,NOMO2 (UniProt Q5JPE7),inactive: -0.038
3,NOA1 (UniProt Q8NC60),inactive: 0.032
4,NOP53 (UniProt Q9NZM5),inactive: 0.085
5,NOSIP (UniProt Q9Y314),inactive: -0.042
6,NUDCD2 (UniProt Q8WVJ2),inactive: -0.051
7,NSF (UniProt P46459),inactive: -0.014
8,NUMA1 (UniProt Q14980),inactive: -0.021
9,NME2 isoform 2 (UniProt P22392),inactive: 0.009
10,NUDT15 (UniProt Q9NV35),inactive: 0.053
11,NT5C (UniProt Q8TCD5),inactive: 0.056
12,NSDHL (UniProt Q15738),inactive: -0.02
13,NSUN2 (UniProt Q08J23),inactive: -0.006
14,NT5DC1 (UniProt Q5TFE4),inactive: 0.004
15,NRBP2 (UniProt Q9NSY0),inactive: 0
16,NT5DC2 isoform 2 (UniProt Q9H857),inactive: -0.019

# Compound: C[C@@H](Oc1cc(-c2cnn(C3CCNCC3)c2)cnc1N)c1c(Cl)ccc(F)c1Cl [crizotinib]
# Test: as above
# Method in brief: as §1
row,Target,log2 fold change
1,NUDT5 (UniProt Q9UKK9),inactive: 0.007
2,NOL12 (UniProt Q9UGY1),inactive: -0.05
3,NUBP1 (UniProt P53384),inactive: -0.02
4,NUMBL (UniProt Q9Y6R0),inactive: 0.066
5,NUDT12 (UniProt Q9BQG2),inactive: -0.027
6,NMNAT1 (UniProt Q9HAN9),inactive: 0.008
7,NT5C2 (UniProt P49902),inactive: -0.017
8,NSRP1 (UniProt Q9H0G5),inactive: 0.039
9,NUDT4 isoform 2 (UniProt Q9NZJ9),inactive: -0.018
10,NSL1 (UniProt Q96IY1),inactive: 0.051
11,NSFL1C isoform 5 (UniProt Q9UNZ2),inactive: 0.058
12,NSUN5 isoform 2 (UniProt Q96P11),inactive: -0.014
13,NRAS (UniProt P01111),inactive: 0.08
14,NOC3L (UniProt Q8WTT2),inactive: -0.066
15,NMD3 (UniProt Q96D46),inactive: -0.027
16,NSMCE4A (UniProt Q9NXX6),inactive: -0.01

row,Target,log2 fold change
1,NUDCD1 (UniProt Q96RS6),inactive: -0.003
2,NOMO2 (UniProt Q5JPE7),inactive: -0.032
3,NOA1 (UniProt Q8NC60),inactive: -0.052
4,NOP53 (UniProt Q9NZM5),inactive: -0.013
5,NOSIP (UniProt Q9Y314),inactive: -0.026
6,NUDCD2 (UniProt Q8WVJ2),inactive: -0.052
7,NSF (UniProt P46459),inactive: 0.003
8,NUMA1 (UniProt Q14980),inactive: -0.017
9,NME2 isoform 2 (UniProt P22392),inactive: 0.018
10,NUDT15 (UniProt Q9NV35),inactive: 0.012
11,NT5C (UniProt Q8TCD5),inactive: 0.016
12,NSDHL (UniProt Q15738),inactive: 0.104
13,NSUN2 (UniProt Q08J23),inactive: -0.024
14,NT5DC1 (UniProt Q5TFE4),inactive: -0.002
15,NRBP2 (UniProt Q9NSY0),inactive: -0.014
16,NT5DC2 isoform 2 (UniProt Q9H857),inactive: 0.004
